# Library screening results

By UniProt entry, the sequences of proteins in these tests, tags left out.
UniProt E9BF75, entry or part of it: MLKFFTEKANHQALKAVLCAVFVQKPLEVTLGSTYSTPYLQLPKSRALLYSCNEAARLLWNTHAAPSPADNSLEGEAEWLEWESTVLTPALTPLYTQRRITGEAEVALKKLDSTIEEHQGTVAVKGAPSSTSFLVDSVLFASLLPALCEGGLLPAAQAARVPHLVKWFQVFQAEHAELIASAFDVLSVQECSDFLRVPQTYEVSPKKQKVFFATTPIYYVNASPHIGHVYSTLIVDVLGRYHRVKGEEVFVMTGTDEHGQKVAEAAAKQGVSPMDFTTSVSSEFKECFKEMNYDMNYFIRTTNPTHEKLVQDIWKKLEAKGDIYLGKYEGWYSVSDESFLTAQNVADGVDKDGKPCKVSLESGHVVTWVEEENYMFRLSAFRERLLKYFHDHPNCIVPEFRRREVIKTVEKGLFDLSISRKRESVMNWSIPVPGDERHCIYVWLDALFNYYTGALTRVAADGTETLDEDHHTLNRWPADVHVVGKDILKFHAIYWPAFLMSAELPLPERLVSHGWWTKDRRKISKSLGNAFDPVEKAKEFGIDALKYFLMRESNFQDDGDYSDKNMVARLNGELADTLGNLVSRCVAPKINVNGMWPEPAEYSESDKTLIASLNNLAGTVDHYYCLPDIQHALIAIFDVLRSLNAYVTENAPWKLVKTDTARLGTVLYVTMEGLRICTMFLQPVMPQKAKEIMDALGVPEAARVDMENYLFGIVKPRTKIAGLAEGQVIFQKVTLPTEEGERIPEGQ

LdMetRS: 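Methionyl-tRNA synthetase (putative), Leishmania donovani (UniProt E9BF75). Primary screen of methionyl-tRNA synthetase; the read-out is not stated. The test concentration is not given. The values are filed as inhibition. About 68,000 compounds were tested under these conditions; 0.035% (about 24) showed 50% or more at least once.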
Mtb heat-shock: 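Assay on Mycobacterium tuberculosis, filed only as a heat shock assay from Cornell; the read-out is not stated. The concentration is filed as 10 mM, unlikely as a test dose, so the dose is not known. The record gives no direction; compounds that gave an IC50 in retests scored well above the rest, so higher reads as stronger inhibition. Of about 69,000 compounds tested this way, about 930 (1.4%) reached 50% or more in at least one test.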

Results are percentages, as filed.
The controls that fix the scale are not given in the record; negative values are as filed.
Compounds were drawn at random from those tested, without regard to their results.
A dash means the value is not listed here; it may have been measured.

| compound | LdMetRS | Mtb heat-shock |
|---|---|---|
| `O=C(O)C(F)(F)F.[H][C@]12CCC(=O)N(c3cccnc3)[C@@]1([H])CCN2C(=O)c1cnoc1C` | - | -7.447 |
| `Cc1occc1C(=O)N1CCc2ncnc(-c3cnn(C)c3)c2CC1` | 9.294 | -13.4 |
| `[H][C@@]12CCN(C(=O)CCC(C)C)C[C@]1(c1nc(C)no1)CCO2` | - | -17.01 |
| `CC(=O)N1C[C@H]2CNC[C@@]2(C(=O)NCCNc2ccncc2C)C1` | 6.863 | - |
| `Cc1cc(C)c(CNC(=O)N2CCN(c3ncccn3)CC2)c(=O)[nH]1` | 10.2 | -8.193 |
| `Cn1cnnc1CNC(=O)Nc1ccc(OC2CCC2)c(F)c1` | 11.08 | 19.09 |
| `Cc1cc(=O)n2nc(CNc3cc(Cl)ccc3C)nc2[nH]1` | 14.73 | 17.9 |
| `CNC(=O)NC(=O)CN1CCC(c2cccc(F)c2)C1` (stereo not drawn) | 14.29 | 0 |
| `COc1cccc(-c2cnc(C3CCNCC3)cn2)c1` | 14.79 | -3.575 |
| `Cc1cnn(CCNCC(=O)NCCOc2ccccc2)c1` | -0.7874 | -20.41 |
| `CCN(C(=O)C(C)C)C(c1cccnc1)c1ccc2c(c1)CCO2` (stereo not drawn) | 0 | -31.27 |
| `O=C(CCc1nc2cc(Br)cnc2[nH]1)NCCCN1CCOCC1` | 13.99 | -29.08 |
| `CC(C)NC(=O)NC[C@H]1OC[C@@H](NCc2ccccc2F)[C@@H]1O` | 3.583 | -6.078 |
| `O=C(CSCC1CC1)N1CCCN(Cc2ccc(F)cc2)CC1` | 18.02 | -26.88 |
| `Cc1cn2nc(Sc3nnc(C(C)C)n3C)sc2n1` | 16.42 | -9.756 |
| `CCc1nnc(Nc2cccc(C3CCN(S(=O)(=O)N(C)C)CC3)n2)s1` | 1.942 | -4.928 |
| `CCOCC1CN(CC2CCC2)Cc2nnn(CC3CC3)c21` (stereo not drawn) | 8.197 | 57.51 |
| `O=C(O)C(F)(F)F.[H][C@@]12C[C@@H](Oc3cncnc3)CN1CCN(C(=O)Cc1cccc(F)c1)C2` | - | -8.954 |
| `Cc1nc(C)n(CC2CCCCN2Cc2cscn2)n1` (stereo not drawn) | 9.278 | 26.85 |
| `COCCn1ccnc1C1CCCN(C(=O)c2ccncc2F)C1` (stereo not drawn) | 0 | -12 |
| `CCOC(=O)C1CCN(C(=O)c2cnn(-c3ccc(C)cc3)c2N)CC1` | 11.39 | 35.79 |
| `CCN(CC)C(=O)N1CCOCC1c1c(C)nn(C)c1C` (stereo not drawn) | 10.64 | -3.82 |
| `CC(C)(NC(=O)NCc1cccc(Br)c1)C(=O)O` | 3.064 | -28.22 |
| `CCS(=O)(=O)c1ccc(N2CCC(NC(=O)C3CCCCC3)CC2)cc1` | 15.03 | -8.67 |
| `COc1ccccc1CN(Cc1cccs1)S(=O)(=O)N(C)C(C)C` | -9.712 | 20.97 |
| `COCCN(C)c1nc(-c2ccncc2)nc2c1CCN(C(C)=O)C2` | 7.527 | -34.87 |
| `CCC(CO)N(Cc1ccccn1)C(=O)c1ccc2c(c1)CCO2` (stereo not drawn) | 11.71 | -22.93 |
| `Cc1cccnc1CN1CCN(C(=O)[C@@]23CNC[C@@H]2CN(C)C3)CC1` | 5.115 | - |
| `CCS(=O)(=O)N1Cc2c(Cn3cccc3)nn(C(C)C)c2C1` | 3.136 | 2.363 |
| `CC(=O)N1CCOC[C@H](Oc2ccc(C(F)(F)F)cc2)C1` | 6.441 | -5.773 |
| `O=C(c1ccc(C2CCCN2C(=O)c2ccc[nH]2)s1)N1CCSCC1` (stereo not drawn) | 6.475 | 5.917 |
| `O=C(O)C(F)(F)F.[H][C@@]12CN(Cc3ccsc3)CCO[C@]1([H])CN(C(=O)C1CC=CC1)C2` | - | 3.706 |
| `Cn1cccc1C(CNC(=O)c1ccc(F)cc1F)N1CCCCCC1` (stereo not drawn) | 17.65 | 13.52 |
| `CCN(CC)Cc1cn2c(n1)CN(C(=O)Cc1ccsc1)CC2.O=C(O)C(F)(F)F` | - | -4.189 |
| `Cc1nc(N)ncc1C(=O)N1CCCC(CCc2ccccc2F)C1` (stereo not drawn) | 8.616 | -1.342 |
| `CNc1ncc2c(n1)CN(C1CC(C)(C)NC(C)(C)C1)C2=O` | -14.82 | 5.494 |
| `CN(C)C(=O)NCc1cc2n(n1)CCCN(CC1CCCNC1)C2` (stereo not drawn) | 16.72 | -21.49 |
| `CN(C)c1cc(C(=O)N2CCN(c3nccs3)CC2)ccn1` | 16.21 | 5.101 |
| `CC1(C)CNC(=O)c2nc(CCN3CCC(O)CC3)[nH]c2C1` | 6.628 | 6.013 |
| `Cc1cc(-c2cccnc2)nc(C2CCCN2S(C)(=O)=O)n1` (stereo not drawn) | 17.32 | 19.56 |
| `CN(Cc1ccco1)C1CCC12CCN(C(=O)c1ccnnc1)CC2` (stereo not drawn) | 8.889 | - |
| `Cc1cc(C(=O)N2C[C@@H](CN3CCCCC3)[C@@H](CO)C2)ccc1O` | 2.793 | -8.468 |
| `Cc1noc([C@@H]2CCO[C@@H]3CCN(C(=O)Cc4ccsc4)C[C@@H]32)n1` | 8.029 | - |
| `Cc1csc2c(C3CCN(CCOc4ccccc4F)CC3)nc(C)n12` | -0.9375 | -16.28 |
| `[H][C@]12CC[C@](O)(CC1)C(COC)N2C(=O)N1CCOCC1` (stereo partly drawn) | - | -3.821 |
| `Cc1nn2c(NC(=O)CSc3ncccn3)csc2nc1=O` | 3.876 | 22.94 |

The first 5 entries again:

- O=C(O)C(F)(F)F.[H][C@]12CCC(=O)N(c3cccnc3)[C@@]1([H])CCN2C(=O)c1cnoc1C | Mtb heat-shock: -7.447%
- Cc1occc1C(=O)N1CCc2ncnc(-c3cnn(C)c3)c2CC1 | LdMetRS: 9.294%; Mtb heat-shock: -13.4%
- [H][C@@]12CCN(C(=O)CCC(C)C)C[C@]1(c1nc(C)no1)CCO2 | Mtb heat-shock: -17.01%
- CC(=O)N1C[C@H]2CNC[C@@]2(C(=O)NCCNc2ccncc2C)C1 | LdMetRS: 6.863%
- Cc1cc(C)c(CNC(=O)N2CCN(c3ncccn3)CC2)c(=O)[nH]1 | LdMetRS: 10.2%; Mtb heat-shock: -8.193%

Source: ChEMBL document CHEMBL3988442, “University of Dundee, Small-Polar-MMV Screening Library” (2021).